In PubChem BioAssay AID1347076 (National Center for Advancing Translational Sciences (NCATS), 2019):
Out of some 400,000 compounds screened, about 13,000 (3.2%) were called active. Inconclusive means that the source gave no clear call. Such entries were picked first, then a sample of the others. Calls come from the whole dose curve; as a rule, active = well fitted cell-killing curve with a large enough effect; inconclusive = small, poorly fitted or top-dose-only effect, or effect the other way; inactive = flat fitted curve, though single readings scatter. Where the call is inconclusive, the potency comes from a doubtful curve fit.

Test: qHTS assay for MDR1-selective chemotherapeutics: Primary screen using the drug-selected MDR subline cells KB-V1; note: nearly all actives have a fitted effect of over 60% in size
Conditions: KB-V1 MDR cells viability, CellTiter-Glo, 72 h; series mostly up to 46.1 µM
In short: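 Drug-selected KB-V1 cells, grown in DMEM lacking phenol red with 10% FBS, receive compound titrations; after three days at 37 degrees C, surviving cell ATP is quantified by CellTiter-Glo luminescence and responses normalized and curve-fitted.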
Potency is the fitted concentration of half-maximal effect.

Q: With CCCCNC(=O)/C(=C\c1ccc([N+](=O)[O-])o1)NC(=O)c1ccccc1 as the molecule, how does the Potency read?
A: inconclusive: 16.4 µM [cytotoxic, partial curve]

Q: With NC(=O)c1nsc(C(=O)N(CC(=O)NC2CCCC2)c2ccc(F)c(Cl)c2)c1N as the molecule, how does the Potency read?
A: inactive

Q: For Cc1ccc(C(=O)N2CCC3(CC2)Oc2ccc(Cl)cc2C(=O)C32CC(c3cccnc3)=NO2)s1 (stereo not drawn), which Potency is on record?
A: inconclusive: 8.2 µM [cytotoxic, partial curve, poor fit]

Q: For CSc1ccc(S(=O)(=O)N2c3ccccc3CC2C)cc1 (stereo not drawn), which Potency is on record?
A: inconclusive: 20.6 µM [cytotoxic, single point]

Q: For Cc1ccc2nc(SCC(=O)Nc3cc([N+](=O)[O-])ccc3F)[nH]c2c1, which Potency is on record?
A: active: 20.6 µM

Q: Which Potency does the source give for COc1ccccc1/C=N\Nc1cc(C)nc(-n2nc(C)cc2C)n1 here?
A: inconclusive: 23.1 µM [cytotoxic, single point]

Q: Which Potency does the source give for CCOc1ccc(C(CC(=O)O)NC(=O)C(Sc2ccccc2)c2ccccc2)cc1 (stereo not drawn) here?
A: inactive

Q: Which Potency does the source give for O=C1CCC(=O)N1CNc1ccc(Oc2ccccc2)cc1 here?
A: inconclusive: 16.4 µM [rising, partial curve, poor fit]

Q: Which Potency does the source give for Cc1ccc(C2=NN(CCC(=O)NCc3ccc4c(c3)OCO4)C(=O)CC2)cc1 here?
A: inconclusive: 9.2 µM [cytotoxic, partial curve]

Q: Which Potency does the source give for CC(C)NC(=O)C1CCN(c2nc3ccccc3nc2C(F)(F)F)CC1 here?
A: inconclusive: 23.1 µM [cytotoxic, single point]

Q: Which Potency does the source give for CCOc1ccc(N(CC(=O)Nc2ccc(C)cc2)S(C)(=O)=O)cc1 here?
A: inconclusive: 10.3 µM [cytotoxic, partial curve]

Q: For Cc1ccc(C2=NN(CC(=O)NCCN(CC(C)C)CC(C)C)C(=O)CC2)cc1, which Potency is on record?
A: inactive

Q: For O=C(c1ccccc1)N(C(=O)c1ccccc1)c1ncnc2c1C(c1ccccc1)c1c(ccc3ccccc13)O2 (stereo not drawn), which Potency is on record?
A: inconclusive: 11.6 µM [cytotoxic, partial curve, poor fit]

Q: For CC(C)OCCCNc1ncnc2c1[nH]c1ccccc12, which Potency is on record?
A: inconclusive: 8.2 µM [cytotoxic, partial curve]

Q: Which Potency does the source give for Nc1nc(Nc2ccccc2)nc(NC2CCCCC2)c1[N+](=O)[O-] here?
A: inconclusive: 29.1 µM [cytotoxic, single point]

Q: Which Potency does the source give for Cc1ccc(-c2cc3c(n2-c2ccc(C)cc2)CC(C)(C)CC3=O)cc1 here?
A: inconclusive: 18.4 µM [rising, partial curve, poor fit]

Q: Which Potency does the source give for Cc1cc(=O)n2[nH]c(C)c(-c3ccccc3)c2n1 here?
A: inconclusive: 32.6 µM [cytotoxic, single point]

Q: With CCS(=O)(=O)c1ccc(C=NNc2nc3ccccc3o2)cc1 as the molecule, how does the Potency read?
A: active: 18.4 µM

Q: Which Potency does the source give for O=C(NCc1ccccc1)c1ccc(CSc2nc3cccnc3n2Cc2ccccc2F)cc1 here?
A: inconclusive: 8.2 µM [cytotoxic, partial curve]

Q: For O=C(NCCCn1cccn1)c1cc(COc2ccccc2)on1, which Potency is on record?
A: inactive

Q: With CCOC(=O)C1=C(COC(=O)/C=C/c2ccc(OC)cc2OC)NC(=O)NC1C (stereo not drawn) as the molecule, how does the Potency read?
A: active: 6.51 µM

Q: For Cn1c(=O)c2c(ncn2CC(=O)Nc2ccccc2Sc2ccccc2)n(C)c1=O, which Potency is on record?
A: inconclusive: 9.2 µM [cytotoxic, partial curve, poor fit]

Q: Which Potency does the source give for CCN(CC)CCCN(C(=O)c1ccccc1C)c1nc(-c2ccc(OC)cc2)cs1 here?
A: inactive

Q: With Cc1cc(C(=O)N/N=C/c2sccc2C)no1 as the molecule, how does the Potency read?
A: inconclusive: 29.1 µM [rising, single point]

Q: With COc1ccccc1NS(=O)(=O)c1ccc(C(=O)N2CCN(c3ccccc3)CC2)cc1 as the molecule, how does the Potency read?
A: inactive

Q: For Oc1c(C(Nc2cccc(C(F)(F)F)c2)c2ccncc2)ccc2cccnc12 (stereo not drawn), which Potency is on record?
A: inconclusive: 2.59 µM [cytotoxic, full curve]

Q: With CC(=O)NCCn1c(SCc2ccc(C)cc2)nc2ccccc2c1=O as the molecule, how does the Potency read?
A: inconclusive: 7.08 µM [cytotoxic, partial curve, poor fit]

Q: With COc1cccc(C(=O)NN2CC(O)=C(c3nc4ccccc4s3)C2=N)c1 as the molecule, how does the Potency read?
A: inconclusive: 29.1 µM [rising, single point]

Q: For Cc1ccc(NC(=O)CSCC(=O)Nc2ccccc2N2CCCCC2)cc1, which Potency is on record?
A: inconclusive: 0.82 µM [cytotoxic, full curve, poor fit]

Q: With NNc1ccc(Cl)c(C(=O)O)c1 as the molecule, how does the Potency read?
A: inactive

Q: Which Potency does the source give for CC(=O)Nc1cc(-c2nc3ccccc3s2)ccc1C here?
A: inactive

Q: Which Potency does the source give for Cc1cc(C)cc(NC(=O)C2CCCN2S(=O)(=O)c2cccc3nsnc23)c1 (stereo not drawn) here?
A: inconclusive: 2.91 µM [cytotoxic, full curve, poor fit]

Q: For CC(C(=O)O/N=C(\N)c1cccnc1)c1ccc([N+](=O)[O-])cc1 (stereo not drawn), which Potency is on record?
A: inconclusive: 14.6 µM [cytotoxic, partial curve, poor fit]

Q: With Cc1ccnc(NC(=O)c2sc3ccccc3c2Cl)c1 as the molecule, how does the Potency read?
A: inconclusive: 8.2 µM [cytotoxic, partial curve]

Q: For COc1cc(C(=O)N/N=C(\Cc2ncc[nH]2)c2ccccc2)cc(OC)c1OC, which Potency is on record?
A: inconclusive: 16.4 µM [cytotoxic, single point]

Q: Which Potency does the source give for Cc1ccc(-c2nnc(N3CCC(C)CC3)c3ccccc23)cc1C here?
A: inconclusive: 23.1 µM [cytotoxic, single point]

Q: Which Potency does the source give for COc1cc(-c2nnc(NC(=O)CS(=O)(=O)c3ccc(Cl)cc3)o2)cc(OC)c1OC here?
A: inactive

Q: Which Potency does the source give for COc1cc2cc(-c3ccc(OC)c(OC)c3C)nc(N)c2cc1OC here?
A: active: 6.51 µM

Q: For COc1ccc(-c2cc3c(=O)n(CC(=O)Nc4ccc(Cl)cc4)ncn3n2)cc1, which Potency is on record?
A: inconclusive: 29.1 µM [rising, single point]

Q: With CCC(C)(C(=O)NC1CCCC1)N(Cc1cccs1)C(=O)Cc1cccs1 (stereo not drawn) as the molecule, how does the Potency read?
A: inconclusive: 16.4 µM [cytotoxic, single point]

Q: Which Potency does the source give for CCOc1ccc(CN(C)CC(=O)Nc2cc(C)c(C)cc2[N+](=O)[O-])cc1 here?
A: inconclusive: 11.6 µM [cytotoxic, partial curve]

Q: For Cc1ccc(NC(=S)/C(=C(\[O-])c2ccc(Cl)s2)[n+]2cccc(CO)c2)cc1C, which Potency is on record?
A: inconclusive: 29.1 µM [rising, single point]

Q: With Cc1ccc(-c2nn3c(C)nnc3s2)cc1NC(=O)c1ccc(-c2ccc(Cl)cc2Cl)o1 as the molecule, how does the Potency read?
A: inconclusive: 5.8 µM [cytotoxic, partial curve]
